# The supplement of paper PMC10849652
# Protein sequences, listed by entry. Tags and fused reporters are not part of them. Lines headed by an entry give the natural chain unless they say otherwise; changes in a name come on top.
# UniProt Q9UHW9: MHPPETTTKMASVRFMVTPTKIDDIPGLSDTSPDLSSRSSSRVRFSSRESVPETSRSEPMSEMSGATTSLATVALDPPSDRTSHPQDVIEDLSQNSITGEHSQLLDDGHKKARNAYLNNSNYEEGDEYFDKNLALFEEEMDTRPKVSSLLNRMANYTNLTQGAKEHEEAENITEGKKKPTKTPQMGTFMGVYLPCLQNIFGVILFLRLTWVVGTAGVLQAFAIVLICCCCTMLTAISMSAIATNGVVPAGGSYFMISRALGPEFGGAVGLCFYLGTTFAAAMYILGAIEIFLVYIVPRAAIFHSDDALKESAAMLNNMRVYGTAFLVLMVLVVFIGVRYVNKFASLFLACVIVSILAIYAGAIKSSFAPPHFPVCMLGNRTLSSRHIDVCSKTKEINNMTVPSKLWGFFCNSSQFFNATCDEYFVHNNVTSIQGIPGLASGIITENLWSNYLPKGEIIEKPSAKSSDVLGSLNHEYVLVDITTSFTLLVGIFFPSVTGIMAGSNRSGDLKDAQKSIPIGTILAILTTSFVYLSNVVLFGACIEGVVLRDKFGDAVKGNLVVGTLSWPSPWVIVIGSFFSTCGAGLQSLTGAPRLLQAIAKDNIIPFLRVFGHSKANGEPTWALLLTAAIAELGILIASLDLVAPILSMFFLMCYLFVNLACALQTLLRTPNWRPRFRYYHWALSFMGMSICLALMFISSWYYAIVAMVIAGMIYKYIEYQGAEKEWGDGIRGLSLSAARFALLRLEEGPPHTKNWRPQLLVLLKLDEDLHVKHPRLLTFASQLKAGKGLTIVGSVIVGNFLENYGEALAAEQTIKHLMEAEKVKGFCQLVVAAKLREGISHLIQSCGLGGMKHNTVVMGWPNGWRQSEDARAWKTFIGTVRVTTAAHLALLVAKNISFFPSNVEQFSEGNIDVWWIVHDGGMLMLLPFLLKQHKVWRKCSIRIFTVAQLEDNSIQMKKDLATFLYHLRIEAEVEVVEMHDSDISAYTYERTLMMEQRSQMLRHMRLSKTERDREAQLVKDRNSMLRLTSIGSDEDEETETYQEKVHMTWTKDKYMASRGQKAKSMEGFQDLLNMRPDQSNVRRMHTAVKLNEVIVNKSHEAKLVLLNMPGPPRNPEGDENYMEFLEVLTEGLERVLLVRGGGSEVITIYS
# UniProt Q9Y6P5: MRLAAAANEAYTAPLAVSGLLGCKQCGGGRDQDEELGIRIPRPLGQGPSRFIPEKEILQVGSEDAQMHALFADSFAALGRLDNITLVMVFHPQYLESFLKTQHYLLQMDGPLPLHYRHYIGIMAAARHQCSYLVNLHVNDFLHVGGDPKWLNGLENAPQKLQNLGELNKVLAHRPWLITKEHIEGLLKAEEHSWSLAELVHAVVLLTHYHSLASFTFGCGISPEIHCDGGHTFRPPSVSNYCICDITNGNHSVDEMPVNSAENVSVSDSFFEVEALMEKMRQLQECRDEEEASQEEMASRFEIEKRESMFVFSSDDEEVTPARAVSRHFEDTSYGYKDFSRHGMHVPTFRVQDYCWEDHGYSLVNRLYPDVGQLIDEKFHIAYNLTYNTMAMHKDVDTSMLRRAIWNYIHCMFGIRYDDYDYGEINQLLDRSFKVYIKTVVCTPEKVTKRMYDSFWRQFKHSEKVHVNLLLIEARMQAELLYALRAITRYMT
# UniProt Q7Z333: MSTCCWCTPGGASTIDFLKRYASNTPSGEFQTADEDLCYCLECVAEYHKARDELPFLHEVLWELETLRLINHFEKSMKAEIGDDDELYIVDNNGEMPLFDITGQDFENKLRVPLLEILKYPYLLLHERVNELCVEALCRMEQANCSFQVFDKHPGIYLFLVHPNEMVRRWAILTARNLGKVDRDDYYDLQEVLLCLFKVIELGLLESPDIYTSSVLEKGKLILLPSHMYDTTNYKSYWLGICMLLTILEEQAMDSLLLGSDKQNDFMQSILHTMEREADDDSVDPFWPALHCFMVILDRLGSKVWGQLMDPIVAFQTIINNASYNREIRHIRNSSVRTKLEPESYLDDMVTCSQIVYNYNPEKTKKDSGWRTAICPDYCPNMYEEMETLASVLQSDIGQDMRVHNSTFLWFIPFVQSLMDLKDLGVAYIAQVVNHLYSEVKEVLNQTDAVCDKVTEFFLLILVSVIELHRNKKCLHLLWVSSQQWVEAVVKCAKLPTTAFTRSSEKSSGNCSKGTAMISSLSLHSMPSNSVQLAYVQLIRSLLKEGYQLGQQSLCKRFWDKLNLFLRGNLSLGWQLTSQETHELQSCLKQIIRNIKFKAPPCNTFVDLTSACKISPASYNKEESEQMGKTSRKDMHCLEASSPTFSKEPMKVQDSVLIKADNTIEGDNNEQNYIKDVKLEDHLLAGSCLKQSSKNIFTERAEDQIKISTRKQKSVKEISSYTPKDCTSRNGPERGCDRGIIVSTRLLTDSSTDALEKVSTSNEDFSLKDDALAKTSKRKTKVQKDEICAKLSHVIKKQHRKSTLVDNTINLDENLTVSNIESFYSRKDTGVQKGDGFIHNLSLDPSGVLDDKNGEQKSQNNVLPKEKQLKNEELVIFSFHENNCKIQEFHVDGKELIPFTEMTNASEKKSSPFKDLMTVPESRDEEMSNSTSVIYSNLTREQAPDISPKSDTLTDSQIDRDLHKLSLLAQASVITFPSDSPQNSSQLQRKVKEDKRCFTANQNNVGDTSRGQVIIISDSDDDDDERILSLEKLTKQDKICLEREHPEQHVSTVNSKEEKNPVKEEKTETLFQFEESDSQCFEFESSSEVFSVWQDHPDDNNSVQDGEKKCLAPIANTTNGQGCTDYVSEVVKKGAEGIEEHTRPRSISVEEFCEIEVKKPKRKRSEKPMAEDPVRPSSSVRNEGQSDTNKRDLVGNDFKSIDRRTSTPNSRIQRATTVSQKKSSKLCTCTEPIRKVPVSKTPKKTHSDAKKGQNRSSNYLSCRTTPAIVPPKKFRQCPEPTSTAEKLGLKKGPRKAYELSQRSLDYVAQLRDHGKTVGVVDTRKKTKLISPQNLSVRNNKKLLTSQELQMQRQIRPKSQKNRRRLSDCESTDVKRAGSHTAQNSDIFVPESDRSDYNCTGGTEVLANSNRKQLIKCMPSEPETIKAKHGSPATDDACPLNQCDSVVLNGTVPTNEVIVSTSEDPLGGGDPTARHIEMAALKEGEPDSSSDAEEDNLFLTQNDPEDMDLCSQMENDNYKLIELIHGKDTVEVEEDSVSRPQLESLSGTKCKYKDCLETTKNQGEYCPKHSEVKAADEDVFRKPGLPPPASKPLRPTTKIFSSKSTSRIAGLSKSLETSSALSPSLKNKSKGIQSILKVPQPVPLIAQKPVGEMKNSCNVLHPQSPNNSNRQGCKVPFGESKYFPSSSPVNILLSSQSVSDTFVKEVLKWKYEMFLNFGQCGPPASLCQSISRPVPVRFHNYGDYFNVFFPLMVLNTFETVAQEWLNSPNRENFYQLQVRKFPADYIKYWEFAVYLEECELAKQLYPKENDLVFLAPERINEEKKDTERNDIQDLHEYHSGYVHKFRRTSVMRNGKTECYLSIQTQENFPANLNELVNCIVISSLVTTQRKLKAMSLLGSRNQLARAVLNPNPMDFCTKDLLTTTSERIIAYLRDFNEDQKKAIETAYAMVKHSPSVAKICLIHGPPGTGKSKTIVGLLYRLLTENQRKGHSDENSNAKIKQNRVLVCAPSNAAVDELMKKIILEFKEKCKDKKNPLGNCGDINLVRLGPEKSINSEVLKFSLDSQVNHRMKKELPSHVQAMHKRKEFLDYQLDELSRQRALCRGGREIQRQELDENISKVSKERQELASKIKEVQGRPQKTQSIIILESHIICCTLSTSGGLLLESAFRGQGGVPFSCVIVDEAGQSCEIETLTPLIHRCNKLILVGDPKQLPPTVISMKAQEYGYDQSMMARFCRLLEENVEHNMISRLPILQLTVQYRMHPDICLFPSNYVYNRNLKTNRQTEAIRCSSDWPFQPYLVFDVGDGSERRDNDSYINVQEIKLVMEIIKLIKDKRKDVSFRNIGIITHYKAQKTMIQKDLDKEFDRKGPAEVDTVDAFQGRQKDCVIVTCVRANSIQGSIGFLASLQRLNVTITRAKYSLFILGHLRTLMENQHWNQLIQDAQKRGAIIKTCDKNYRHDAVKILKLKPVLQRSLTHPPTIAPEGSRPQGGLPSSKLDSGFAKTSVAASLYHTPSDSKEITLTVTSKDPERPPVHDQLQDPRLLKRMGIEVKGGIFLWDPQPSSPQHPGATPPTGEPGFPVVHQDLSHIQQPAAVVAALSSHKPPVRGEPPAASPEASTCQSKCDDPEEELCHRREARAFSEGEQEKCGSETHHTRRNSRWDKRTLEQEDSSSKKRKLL
# UniProt P29353: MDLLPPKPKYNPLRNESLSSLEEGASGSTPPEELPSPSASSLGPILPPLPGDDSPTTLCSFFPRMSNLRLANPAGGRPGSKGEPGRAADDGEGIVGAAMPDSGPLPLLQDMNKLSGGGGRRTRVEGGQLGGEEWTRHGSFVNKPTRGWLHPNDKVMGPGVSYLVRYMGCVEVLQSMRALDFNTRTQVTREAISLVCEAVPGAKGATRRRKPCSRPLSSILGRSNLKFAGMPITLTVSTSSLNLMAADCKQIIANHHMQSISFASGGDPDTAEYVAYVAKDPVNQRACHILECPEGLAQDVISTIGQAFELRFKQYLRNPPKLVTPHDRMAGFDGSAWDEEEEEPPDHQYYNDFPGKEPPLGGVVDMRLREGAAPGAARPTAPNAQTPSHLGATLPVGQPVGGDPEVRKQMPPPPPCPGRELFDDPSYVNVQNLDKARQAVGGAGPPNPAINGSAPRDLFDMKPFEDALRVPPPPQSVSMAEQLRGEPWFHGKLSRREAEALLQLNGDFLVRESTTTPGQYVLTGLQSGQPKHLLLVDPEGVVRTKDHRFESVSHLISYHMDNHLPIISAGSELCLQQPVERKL
# UniProt O75182: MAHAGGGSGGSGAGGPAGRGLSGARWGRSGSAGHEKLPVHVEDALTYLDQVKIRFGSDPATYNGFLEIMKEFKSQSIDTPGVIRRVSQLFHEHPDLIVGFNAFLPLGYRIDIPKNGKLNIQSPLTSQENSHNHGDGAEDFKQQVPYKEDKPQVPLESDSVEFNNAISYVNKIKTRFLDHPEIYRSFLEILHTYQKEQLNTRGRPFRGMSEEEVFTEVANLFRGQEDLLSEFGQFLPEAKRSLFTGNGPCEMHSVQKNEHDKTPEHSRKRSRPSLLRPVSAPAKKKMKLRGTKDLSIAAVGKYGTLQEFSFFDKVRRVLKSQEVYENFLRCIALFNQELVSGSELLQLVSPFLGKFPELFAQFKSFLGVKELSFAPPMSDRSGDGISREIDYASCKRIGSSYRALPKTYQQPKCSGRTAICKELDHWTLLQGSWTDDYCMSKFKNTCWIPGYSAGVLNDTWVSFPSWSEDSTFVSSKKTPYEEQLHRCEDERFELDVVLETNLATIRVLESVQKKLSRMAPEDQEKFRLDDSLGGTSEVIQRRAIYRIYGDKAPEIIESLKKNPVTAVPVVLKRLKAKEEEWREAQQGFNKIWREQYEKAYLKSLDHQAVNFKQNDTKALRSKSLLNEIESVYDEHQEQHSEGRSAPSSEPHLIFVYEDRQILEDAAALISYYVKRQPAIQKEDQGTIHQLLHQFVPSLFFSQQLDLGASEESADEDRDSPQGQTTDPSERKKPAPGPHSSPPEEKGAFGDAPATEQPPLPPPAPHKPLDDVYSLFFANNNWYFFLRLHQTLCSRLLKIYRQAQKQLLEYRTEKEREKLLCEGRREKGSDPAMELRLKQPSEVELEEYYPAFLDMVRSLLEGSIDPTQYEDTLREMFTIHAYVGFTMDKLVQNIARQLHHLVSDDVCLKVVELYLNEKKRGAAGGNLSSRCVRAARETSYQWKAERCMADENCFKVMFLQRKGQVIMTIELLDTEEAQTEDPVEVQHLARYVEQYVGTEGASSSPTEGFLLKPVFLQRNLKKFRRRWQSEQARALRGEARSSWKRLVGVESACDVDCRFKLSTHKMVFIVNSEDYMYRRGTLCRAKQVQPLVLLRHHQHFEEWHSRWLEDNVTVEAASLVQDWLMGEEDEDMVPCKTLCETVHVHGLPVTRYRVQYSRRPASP
# UniProt Q9HAT2: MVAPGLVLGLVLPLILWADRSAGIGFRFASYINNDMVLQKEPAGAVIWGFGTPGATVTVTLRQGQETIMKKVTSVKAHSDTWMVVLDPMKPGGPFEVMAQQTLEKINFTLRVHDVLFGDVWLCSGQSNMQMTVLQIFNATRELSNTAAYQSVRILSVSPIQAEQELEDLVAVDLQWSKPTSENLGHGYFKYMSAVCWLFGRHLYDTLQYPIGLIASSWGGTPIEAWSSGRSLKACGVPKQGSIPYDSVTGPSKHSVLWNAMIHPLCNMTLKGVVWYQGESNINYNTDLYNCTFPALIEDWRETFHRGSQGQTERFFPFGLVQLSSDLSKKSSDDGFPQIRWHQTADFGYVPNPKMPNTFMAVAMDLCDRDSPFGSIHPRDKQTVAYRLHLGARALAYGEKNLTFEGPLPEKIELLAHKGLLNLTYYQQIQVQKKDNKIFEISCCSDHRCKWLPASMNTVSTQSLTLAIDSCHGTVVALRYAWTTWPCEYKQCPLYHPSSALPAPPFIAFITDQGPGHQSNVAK
# The list shows a part of the results.
# Key:
# Test in all cases: log2 fold change, soluble protein after heating vs DMSO (PISA); higher = thermal stabilisation; K562 lysate, 10 uM; active = over 0.2 and 3.5 SD of the protein, either way, in both replicates (recomputed)
# [1] = compound: Cc1sc2c(c1C)C(c1ccc(Cl)cc1)=N[C@@H](CC(=O)OC(C)(C)C)c1nnc(C)n1-2
# Procedure, shortened: (§1)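 Soluble protein was defined as the supernatant remaining after 21,000xg for 90 min, following pooling of heated aliquots and adjustment to 0.5% NP-40 at 4°C. Before that, crude K562 extract at 1 mg/mL protein in PBS pH 7.4 with 1 mM MgCl2 was treated with 10 μM compound for 30 min and heated for 3 min across 48°C-58°C. Quantification used TMTpro 16plex LC-MS/MS with channel sums equalised, and values are log-two fold changes in thermal stability relative to solvent controls from duplicates.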
# [2] = compound: c1ccc([C@@H]2C[C@H]2NC2CCNCC2)cc1
# Procedure, shortened: as §1
# [3] = compound: CC1=C2C(=CC=C1)N=C(N(C2=O)C3=CC=CC=C3C)CN4C=NC5=C(N=CN=C54)N
# Procedure, shortened: as §1
# [4] = compound: C1=CC=C(C=C1)[C@H](COC2=CC3=C(C=C2)NC(=O)N3)NC(=O)C4=CC=CN(C4=O)CC5=CC(=C(C=C5)F)F
# Procedure, shortened: as §1
# [5] = compound: CC1=C(SC2=C1C(=N[C@H](C3=NN=C(N32)C)CC(=O)N)C4=CC=C(C=C4)Cl)C
# Procedure, shortened: as §1
target,measurement,setting,value
SET isoform 3 (UniProt Q01105),log2 fold change,[1],inactive: -0.05
same,log2 fold change,[2],inactive: -0.074
SLC12A6 isoform 2 (UniProt Q9UHW9),log2 fold change,[1],inactive: -0.179
SGK3 (UniProt Q96BR1),log2 fold change,[3],inactive: 0.056
same,log2 fold change,[1],inactive: -0.184
SH2B3 (UniProt Q9UQQ2),log2 fold change,[3],inactive: 0.05
SKP2 (UniProt Q13309),log2 fold change,[3],inactive: -0.015
same,log2 fold change,[1],inactive: -0.003
same,log2 fold change,[2],inactive: 0.001
SESN1 isoform 2 (UniProt Q9Y6P5),log2 fold change,[4],inactive: -0.002
same,log2 fold change,[5],inactive: 0.021
same,log2 fold change,[2],inactive: 0.136
SLC18B1 (UniProt Q6NT16),log2 fold change,[3],inactive: 0.165
same,log2 fold change,[2],inactive: -0.092
SLC12A7 (UniProt Q9Y666),log2 fold change,[2],inactive: 0.103
SGMS1 (UniProt Q86VZ5),log2 fold change,[3],inactive: 0.049
same,log2 fold change,[1],inactive: 0.004
same,log2 fold change,[2],inactive: 0.013
SIRT3 (UniProt Q9NTG7),log2 fold change,[3],inactive: -0.128
same,log2 fold change,[1],inactive: 0.069
SETX isoform 4 (UniProt Q7Z333),log2 fold change,[3],inactive: 0.046
same,log2 fold change,[1],inactive: -0.033
same,log2 fold change,[2],inactive: -0.024
SLC10A4 (UniProt Q96EP9),log2 fold change,[1],inactive: -0.043
SKIL (UniProt P12757),log2 fold change,[3],inactive: 0.156
same,log2 fold change,[2],inactive: 0.031
SERPINB5 (UniProt P36952),log2 fold change,[4],inactive: -0.14
same,log2 fold change,[5],inactive: -0.037
same,log2 fold change,[1],inactive: -0.129
same,log2 fold change,[2],inactive: -0.029
SETD6 (UniProt Q8TBK2),log2 fold change,[1],inactive: 0.097
SHC1 (UniProt P29353),log2 fold change,[2],inactive: 0.201
SKIV2L (UniProt Q15477),log2 fold change,[3],inactive: -0.033
SLC10A3 (UniProt P09131),log2 fold change,[3],inactive: 0.055
same,log2 fold change,[2],inactive: -0.046
SFT2D3 (UniProt Q587I9),log2 fold change,[1],inactive: -0.204
same,log2 fold change,[2],inactive: -0.158
SIN3B (UniProt O75182),log2 fold change,[3],inactive: -0.129
same,log2 fold change,[2],inactive: 0.052
SIGIRR (UniProt Q6IA17),log2 fold change,[3],inactive: 0.183
same,log2 fold change,[2],inactive: -0.004
SIAE (UniProt Q9HAT2),log2 fold change,[4],inactive: 0.01
same,log2 fold change,[5],inactive: -0.004
same,log2 fold change,[2],inactive: 0.082

# Reformatted as tab-separated lines: part of the list above
target	measurement	setting	value
SIRT3 (UniProt Q9NTG7)	log2 fold change	[1]	inactive: 0.069
SETX isoform 4 (UniProt Q7Z333)	log2 fold change	[3]	inactive: 0.046
